Results are given in words; binding and its absence hold for the method and conditions named. Some entries that bind do so weakly or less than the wild type. Tags and fused reporters may be left off the sequences shown.

In this assay the target is BRD4 (human) (UniProt O60885). The assay can be described thus: proximity biotinylation in HEK293T cells treated with the PROTAC KB02-JQ1 (10 uM) and MG132; recruitment induced by the small molecule.

B1: PSMA4-miniTurbo-FLAG (protein)
chain: MSRRYDSRTTIFSPEGRLYQVEYAMEAIGHAGTCLGILANDGVLLAAERRNIHKLLDEVFFSEKIYKLNEDMACSVAGITSDANVLTNELRLIAQRYLLQYQEPIPCEQLVTALCDIKQAYTQFGGKRPFGVSLLYIGWDKHYGFQLYQSDPSGNYGGWKATCIGNNSAAAVSMLKQDYKEGEMTLKSALALAIKVLNKTMDVSKLSAEKVEIATLTRENGKTVIRVLKQKEVEQLIKKHEEEEAKAEREKKEKEQKEKDKYPTFLYKVVDSRMASIPLLNAKQILGQLDGGSVAVLPVVDSTNQYLLDRIGELKSGDACIAEYQQAGRGSRGRKWFSPFGANLYLSMFWRLKRGPAAIGLGPVIGIVMAEALRKLGADKVRVKWPNDLYLQDRKLAGILVELAGITGDAAQIVIGAGINVAMRRVEESVVNQGWITLQEAGINLDRNTLAAMLIRELRAALELFEQEGLAPYLSRWEKLDNFINRPVKLIIGDKEIFGISRGIDKQGALLLEQDGVIKPWMGGEISLRSAEKLQDDYKDDDDK
Consider B1, for which the binding entry is given as “binds”.

These data come from patent publication US20260243776A1, “A METHOD FOR DETECTING PROTEIN TARGETS OF AN ENZYME USING A BIOTIN LIGASE” (Leibniz-Institut für Alternsforschung - …, priority 2022, published 2026).
